In article PMC5668364, “Structure and functional dynamics of the mitochondrial Fe/S cluster synthesis complex” (Nature Communications, 2017):
These are yes or no findings as the source states them, for the method shown. For part of these data: In cells and extracts the contact can be indirect. Some results given as binding are weak or reduced against the parent protein; the word gives no strength. For part of these data: Where a sequence is shown, tags or fusion partners need not be part of it.

Chains of the proteins cited; added tags and fusions are not shown. Lines headed by an entry give the natural chain unless they say otherwise; changes in a name come on top. Residues count along the entry.
UniProt Q9HD34: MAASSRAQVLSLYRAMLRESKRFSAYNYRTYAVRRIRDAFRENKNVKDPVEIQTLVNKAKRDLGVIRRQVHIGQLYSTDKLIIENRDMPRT
UniProt Q9Y697, residues 56-457: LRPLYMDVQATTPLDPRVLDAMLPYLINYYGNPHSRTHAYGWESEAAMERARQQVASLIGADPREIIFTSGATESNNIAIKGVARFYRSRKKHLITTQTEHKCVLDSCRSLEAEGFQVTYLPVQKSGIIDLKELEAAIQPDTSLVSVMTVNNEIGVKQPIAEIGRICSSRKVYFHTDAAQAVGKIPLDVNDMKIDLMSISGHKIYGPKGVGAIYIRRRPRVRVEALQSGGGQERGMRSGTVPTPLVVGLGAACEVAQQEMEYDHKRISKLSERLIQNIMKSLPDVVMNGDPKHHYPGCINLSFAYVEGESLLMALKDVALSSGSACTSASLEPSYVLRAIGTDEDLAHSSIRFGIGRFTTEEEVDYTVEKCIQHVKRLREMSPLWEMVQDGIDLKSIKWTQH

Legend:
[1] = biological target: T1, human ISD11, full length, no tag (human, UniProt Q9HD34 1-91); assay: crystal structure; (NIAU)2 (purified with EDTA, 3.15 Å) and (NIAU-Zn)2 (without EDTA, 3.3 Å) complexes; 0.1 M MES pH 7.0, 15% PEG-3350; both purified
T1 construct: human ISD11 (LYRM4), full length, plasmid pZM4; also called LYRM4; I of (NIA)2 and (NIAU)2; source: E. coli One Shot BL21 Star (DE3), co-expressed with NFS1, co-purified (Ni-NTA)

[2] = biological target: T1, human ISD11, full length, no tag; assay: crystal structure; (NIA)2 complex, 2.75 Å, space group R32; crystals from 100 mM MES pH 6.5, 0.3 M ammonium acetate, 20 mM calcium acetate, 20 mM CaCl2, 19% isopropanol, 12 °C; both purified
[3] = biological target: T2, S. cerevisiae Isd11-FLAG Y34W/K38A/V68D (S. cerevisiae) (UniProt Q6Q560); assay: co-IP; anti-FLAG (FLAG-M2 Sepharose) precipitation of Isd11-FLAG from lysates of mitochondria of Isd11-depleted Gal-ISD11 yeast expressing Acp1-HA; 10 mM Tris-HCl pH 7.4, 150 mM NaCl, 0.1 mM DTT, 10% glycerol, 0.2% Triton-X100, 4 °C; immunostaining
T2 sequence: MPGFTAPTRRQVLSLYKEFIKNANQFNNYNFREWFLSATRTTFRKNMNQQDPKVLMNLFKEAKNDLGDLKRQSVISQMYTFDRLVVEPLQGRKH

[4] = biological target: T3, S. cerevisiae Isd11-FLAG V12Q/L55Q (S. cerevisiae) (UniProt Q6Q560); assay: as above
T3 sequence: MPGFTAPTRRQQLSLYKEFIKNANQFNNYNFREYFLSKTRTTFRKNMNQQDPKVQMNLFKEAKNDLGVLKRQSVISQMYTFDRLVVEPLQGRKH

[5] = biological target: T4, S. cerevisiae Isd11-FLAG, wild type (S. cerevisiae) (UniProt Q6Q560); assay: as above
T4 sequence: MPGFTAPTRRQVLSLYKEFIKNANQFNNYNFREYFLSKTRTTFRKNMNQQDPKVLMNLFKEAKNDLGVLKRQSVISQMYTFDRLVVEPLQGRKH

[6] = biological target: T5, S. cerevisiae Isd11-FLAG K17F/K21F (S. cerevisiae) (UniProt Q6Q560); assay: as above
T5 sequence: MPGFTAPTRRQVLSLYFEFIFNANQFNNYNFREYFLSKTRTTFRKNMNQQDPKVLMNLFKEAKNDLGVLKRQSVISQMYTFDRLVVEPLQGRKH

[7] = biological target: T2, S. cerevisiae Isd11-FLAG Y34W/K38A/V68D (S. cerevisiae); assay: native gel or EMSA; blue-native gel electrophoresis (7.5-20% polyacrylamide) of mitochondrial extracts; immunostaining against FLAG of Isd11-FLAG
[8] = biological target: T3, S. cerevisiae Isd11-FLAG V12Q/L55Q (S. cerevisiae); assay: as above
[9] = biological target: T4, S. cerevisiae Isd11-FLAG, wild type (S. cerevisiae); assay: as above
[10] = biological target: T5, S. cerevisiae Isd11-FLAG K17F/K21F (S. cerevisiae); assay: as above

Measured: binding

human NFS1 residues 56-457 without tag (from UniProt Q9Y697 56-457) (enzyme)
binds: [1]

human NFS1 residues 56-457 (Δ1-55) with N-terminal His6-tag (from UniProt Q9Y697 56-457) (enzyme)
binds: [2]

B1: S. cerevisiae Acp1-HA (protein, UniProt P32463 37-125)
chain: SANLSKDQVSQRVIDVIKAFDKNSPNIANKQISSDTQFHKDLGLDSLDTVELLVAIEEEFDIEIPDKVADELRSVGETVDYIASNPDAN
binds: [3] | [4] | [5] | [6]

B2: S. cerevisiae Isu1 (protein, UniProt Q03020 28-165)
chain: SSITKRLYHPKVIEHYTHPRNVGSLDKKLPNVGTGLVGAPACGDVMRLQIKVNDSTGVIEDVKFKTFGCGSAIASSSYMTELVQGMTLDDAAKIKNTEIAKELSLPPVKLHCSMLAEDAIKAAIKDYKSKRNTPTMLS
binds: [3] | [4] | [5] | [6]

B3: S. cerevisiae Nfs1 (enzyme, UniProt P25374 37-497)
chain: PAAGVKLDDNFSLETHTDIQAAAKAQASARASASGTTPDAVVASGSTAMSHAYQENTGFGTRPIYLDMQATTPTDPRVLDTMLKFYTGLYGNPHSNTHSYGWETNTAVENARAHVAKMINADPKEIIFTSGATESNNMVLKGVPRFYKKTKKHIITTRTEHKCVLEAARAMMKEGFEVTFLNVDDQGLIDLKELEDAIRPDTCLVSVMAVNNEIGVIQPIKEIGAICRKNKIYFHTDAAQAYGKIHIDVNEMNIDLLSISSHKIYGPKGIGAIYVRRRPRVRLEPLLSGGGQERGLRSGTLAPPLVAGFGEAARLMKKEFDNDQAHIKRLSDKLVKGLLSAEHTTLNGSPDHRYPGCVNVSFAYVEGESLLMALRDIALSSGSACTSASLEPSYVLHALGKDDALAHSSIRFGIGRFSTEEEVDYVVKAVSDRVKFLRELSPLWEMVQEGIDLNSIKWSGH
not listed: [1] | [2]
binds: all other assays above
